The campaign covered roughly 300,000 compounds. About 5,400 (1.8%) were called active. The inconclusive results got no clear call from the source; some entries with a clear call stand among them for comparison. The call rests on the fitted dose curve; tested in HEK293 cells. Potencies beside an inconclusive call are fits to weak or partial responses and may not hold up.
test: qHTS for inhibitors of binding or entry into cells for Marburg Virus; conditions: Marburg virus pseudotyped entry inhibition, cell reporter; activity change, negative = inhibition: at 37.8 µM (top of the series) unless noted
On the % scale 0 is the no-effect control and ±100 the full control effect; potency means the concentration at half of the fitted maximal effect.

Row | Structure (SMILES) | Potency | activity change, negative = inhibition
1 | COc1cc(NC(=O)CN2CCCCC2)c(C)cc1[N+](=O)[O-] | inconclusive: 12.6 µM [activator, partial curve, poor fit] | 
2 | COc1ccc(-c2nc(SCC(=O)Nc3ccccc3)c(-c3ccc(F)cc3)[nH]2)cc1OC |  | inactive: -10.2% [at 46.1 µM]
3 | CCCC(=O)Nc1ccc(NC(=O)c2cc3ccccc3o2)c(OC)c1 |  | inactive: -32.3% [at 46.1 µM]
4 | COc1ccc(C=CC(=O)c2cc(O)ccc2O)cc1 |  | inactive: 0.511% [at 46.1 µM]
5 | CCS(=O)(=O)N1CCc2cc(C(=O)N3CCN(c4ccc(OC)cc4)CC3)ccc21 |  | inactive: -1.85% [at 46.1 µM]
6 | COc1ccc(OC)c(S(=O)(=O)N2Cc3ccccc3CC2C(=O)Nc2ccc(C)cc2C)c1 (stereo not drawn) | inconclusive: 2 µM [inhibitor, single point] | 
7 | CC(C)(C)c1cc(C(=O)N/N=C/c2ccc([N+](=O)[O-])s2)n[nH]1 | inconclusive: 4.47 µM [inhibitor, full curve, poor fit] | 
8 | CC1CCc2c(C(=O)Nc3ccc(N4CCOCC4)cc3)csc2C1 (stereo not drawn) | inconclusive: 5.62 µM [inhibitor, single point] | 
9 | COc1cccc(C(=O)Nc2ccc(NC(=O)C3CC3)cn2)c1 | inconclusive: 2.24 µM [activator, partial curve, poor fit] | 
10 | COC(=O)c1ccc(COc2ccccc2/C=C(\C#N)C(=O)Nc2c(C)cccc2C)cc1 | active: 11.2 µM | 
11 | CCOC(=O)C1=C(COC(=O)C2(C)CC2(Cl)Cl)NC(=O)NC1c1ccc(OC)cc1 (stereo not drawn) | inconclusive: 25.1 µM [inhibitor, single point] | 
12 | CCc1ccc(C2CC(=O)c3c([nH]c(C(=O)OC4CCC(C)CC4)c3C)C2)cc1 (stereo not drawn) |  | inactive: 10.9% [at 46.1 µM]
13 | C=C(C)C1CC=C(C)/C(=N\NC(=S)Nc2ccc(C)cc2)C1 (stereo not drawn) | inconclusive: 11.2 µM [inhibitor, partial curve, poor fit] | 
14 | CC(=O)N1[C@@H]2CC3C4CC=C5C[C@@H](O)CC[C@]5(C)C4CC[C@]3(C)[C@@]21C(C)=O (stereo partly drawn) | inconclusive: 2.24 µM [activator, partial curve, poor fit] | 
15 | CCOC(=O)c1ccc(NC(=S)Nc2ccc3[nH]c(=O)[nH]c3c2)cc1 | inconclusive: 20 µM [inhibitor, single point] | 
16 | CCN(CC)S(=O)(=O)c1ccc(NC(=O)c2cc(-c3ccccc3)nc3ccccc23)cc1 | inconclusive: 0.794 µM [inhibitor, single point] | 
17 | CN(C)c1ccc(NC(=O)Nc2cccc(Cl)c2)cc1 |  | inactive: -4.55%
18 | Cn1cnc2c(NCc3ccccc3)nc(NCCO)nc21 | inconclusive: 14.6 µM [activator, single point] | 

A draw from above in order of number of heavy atoms, smallest number first.
Row | Structure (SMILES) | Potency | activity change, negative = inhibition
7 | CC(C)(C)c1cc(C(=O)N/N=C/c2ccc([N+](=O)[O-])s2)n[nH]1 | inconclusive: 4.47 µM [inhibitor, full curve, poor fit] | 
9 | COc1cccc(C(=O)Nc2ccc(NC(=O)C3CC3)cn2)c1 | inconclusive: 2.24 µM [activator, partial curve, poor fit] | 
6 | COc1ccc(OC)c(S(=O)(=O)N2Cc3ccccc3CC2C(=O)Nc2ccc(C)cc2C)c1 (stereo not drawn) | inconclusive: 2 µM [inhibitor, single point] | 
